This note sets out measurements from patent US20240252486A1, “ALGOSTATIC AGENTS FOR PREVENTING TRANSITION FROM ACUTE TO CHRONIC PAIN” (The Regents of the University of California, priority 2021, published 2024).

SMILES strings stand for the structures. Entries after “also recorded” stand apart in the source; their conditions may differ.

This test concerns formalin-injected mice. The test is described as follows: Formalin-induced chronic pain-like state (CPLS): persistent hypersensitivity to heat and mechanical stimuli. The format is in vivo, mouse. The note with it: maximally effective dosages on PFD2-4: gabapentin 50 mg-kg^−1 IP, morphine 10 mg-kg^−1 subcutaneous, ketamine 4 mg-kg^−1 IP, ketoprofen 100 mg-kg^−1 IP, WT mice.

On to `CN1CC[C@]23c4c5ccc(O)c4O[C@H]2[C@@H](O)C=C[C@H]3[C@H]1C5` [morphine], for which the “conversion to CPLS (contralateral hyperalgesia, PFD14)” value is “not mimicked; also recorded: failed to stop; also recorded: do not prevent; also recorded: fail to prevent”.
